Laboratory results taken from PMC10297445.
No constants are given. Whether binding was seen depends on the method and setting. In cells and extracts the contact can be indirect. Some results given as binding are weak or reduced against the parent protein; the word gives no strength.

Sequences of proteins named here, by UniProt entry; tags and fusion partners are left off. A change or cut given only in a name is not applied to a line headed by its entry. Residues count along the entry.
UniProt Q60613: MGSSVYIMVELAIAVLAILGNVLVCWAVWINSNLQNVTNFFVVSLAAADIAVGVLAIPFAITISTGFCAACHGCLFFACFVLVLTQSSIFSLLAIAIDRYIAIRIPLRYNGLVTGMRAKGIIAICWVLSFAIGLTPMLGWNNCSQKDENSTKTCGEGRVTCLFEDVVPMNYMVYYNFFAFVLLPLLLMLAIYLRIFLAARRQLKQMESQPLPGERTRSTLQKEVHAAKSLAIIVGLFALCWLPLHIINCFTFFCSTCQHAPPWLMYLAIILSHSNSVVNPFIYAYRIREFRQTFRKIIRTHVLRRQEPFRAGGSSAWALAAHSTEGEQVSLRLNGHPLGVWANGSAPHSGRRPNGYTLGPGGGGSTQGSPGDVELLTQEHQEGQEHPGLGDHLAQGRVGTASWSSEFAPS
UniProt O15118, residues 23-1278: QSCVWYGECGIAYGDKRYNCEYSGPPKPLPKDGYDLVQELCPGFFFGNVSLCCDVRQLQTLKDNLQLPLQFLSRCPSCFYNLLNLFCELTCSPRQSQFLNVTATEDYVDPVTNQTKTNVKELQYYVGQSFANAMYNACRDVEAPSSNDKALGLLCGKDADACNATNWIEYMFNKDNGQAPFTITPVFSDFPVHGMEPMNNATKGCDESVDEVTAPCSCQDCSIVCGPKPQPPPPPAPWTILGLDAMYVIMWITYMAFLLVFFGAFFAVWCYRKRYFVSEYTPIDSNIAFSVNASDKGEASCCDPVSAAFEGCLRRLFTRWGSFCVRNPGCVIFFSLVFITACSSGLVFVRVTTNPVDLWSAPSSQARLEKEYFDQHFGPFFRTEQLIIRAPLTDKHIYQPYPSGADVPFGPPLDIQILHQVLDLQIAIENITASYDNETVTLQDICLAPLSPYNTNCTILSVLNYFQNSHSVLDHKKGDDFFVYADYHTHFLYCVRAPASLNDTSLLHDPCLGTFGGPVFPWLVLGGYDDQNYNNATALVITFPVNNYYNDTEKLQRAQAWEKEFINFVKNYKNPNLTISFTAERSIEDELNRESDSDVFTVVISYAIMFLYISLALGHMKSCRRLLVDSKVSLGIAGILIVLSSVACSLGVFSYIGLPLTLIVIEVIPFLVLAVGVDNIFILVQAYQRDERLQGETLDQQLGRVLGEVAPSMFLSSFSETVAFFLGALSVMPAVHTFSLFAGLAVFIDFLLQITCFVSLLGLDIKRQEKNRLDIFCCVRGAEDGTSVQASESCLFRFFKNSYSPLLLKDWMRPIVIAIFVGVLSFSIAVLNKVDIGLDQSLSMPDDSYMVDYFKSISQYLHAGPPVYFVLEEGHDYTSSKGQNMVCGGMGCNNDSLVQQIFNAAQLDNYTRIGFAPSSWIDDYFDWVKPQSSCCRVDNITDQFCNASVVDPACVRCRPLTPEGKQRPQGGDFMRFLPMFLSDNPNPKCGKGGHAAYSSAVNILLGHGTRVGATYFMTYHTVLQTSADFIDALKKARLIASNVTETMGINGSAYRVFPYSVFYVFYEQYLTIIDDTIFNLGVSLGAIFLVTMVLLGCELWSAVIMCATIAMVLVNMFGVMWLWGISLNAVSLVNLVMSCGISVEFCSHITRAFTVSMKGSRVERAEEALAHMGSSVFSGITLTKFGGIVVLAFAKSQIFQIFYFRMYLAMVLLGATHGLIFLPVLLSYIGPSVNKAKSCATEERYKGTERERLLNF
UniProt O35604, residues 23-1277: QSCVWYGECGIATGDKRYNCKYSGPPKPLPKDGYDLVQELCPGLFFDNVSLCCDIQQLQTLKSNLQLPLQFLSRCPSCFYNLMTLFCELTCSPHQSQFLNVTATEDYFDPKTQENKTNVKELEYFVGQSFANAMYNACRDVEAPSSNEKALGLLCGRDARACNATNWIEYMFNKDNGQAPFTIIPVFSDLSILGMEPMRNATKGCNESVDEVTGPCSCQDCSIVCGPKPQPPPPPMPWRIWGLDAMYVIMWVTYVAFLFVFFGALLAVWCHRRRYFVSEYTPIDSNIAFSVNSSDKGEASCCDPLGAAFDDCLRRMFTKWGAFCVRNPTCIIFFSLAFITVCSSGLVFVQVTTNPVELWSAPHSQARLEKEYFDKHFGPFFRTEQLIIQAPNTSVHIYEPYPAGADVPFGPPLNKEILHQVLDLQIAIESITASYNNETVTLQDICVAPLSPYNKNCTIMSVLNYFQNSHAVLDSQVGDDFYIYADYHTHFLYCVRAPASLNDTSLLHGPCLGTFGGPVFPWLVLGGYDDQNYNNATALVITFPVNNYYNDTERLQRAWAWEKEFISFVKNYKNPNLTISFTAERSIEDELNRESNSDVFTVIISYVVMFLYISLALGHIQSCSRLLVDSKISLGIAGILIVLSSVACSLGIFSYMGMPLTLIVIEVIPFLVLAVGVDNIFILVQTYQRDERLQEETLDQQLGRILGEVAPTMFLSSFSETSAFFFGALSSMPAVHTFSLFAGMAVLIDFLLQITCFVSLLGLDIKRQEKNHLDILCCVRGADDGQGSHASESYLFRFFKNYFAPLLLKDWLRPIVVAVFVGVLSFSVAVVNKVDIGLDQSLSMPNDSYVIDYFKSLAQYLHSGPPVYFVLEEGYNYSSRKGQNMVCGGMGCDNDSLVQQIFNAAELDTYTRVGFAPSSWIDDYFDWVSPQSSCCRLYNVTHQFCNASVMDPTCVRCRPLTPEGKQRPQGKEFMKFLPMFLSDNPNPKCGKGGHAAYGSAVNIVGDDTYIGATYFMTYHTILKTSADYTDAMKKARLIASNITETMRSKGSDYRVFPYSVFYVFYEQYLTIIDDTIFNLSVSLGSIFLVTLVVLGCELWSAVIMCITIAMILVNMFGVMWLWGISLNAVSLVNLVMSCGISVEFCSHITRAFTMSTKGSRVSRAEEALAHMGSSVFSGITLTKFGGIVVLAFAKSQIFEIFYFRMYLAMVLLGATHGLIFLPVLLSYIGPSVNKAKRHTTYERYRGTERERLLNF

How the values were obtained:
[1] = target: Flag-A2AR^SNAP (human adenosine A2A receptor tagged with Flag and SNAP at its N-terminus) (human) (UniProt P29274); assay: co-IP; HEK-293-Flag-A2AR^SNAP cell lysate (500 µg protein) with 8.5 µg anti-A2AR antibody or control rabbit serum, Dynabeads Protein G; western blot with anti-NPC1
[2] = target: Adenosine A2A receptor, endogenous in RAW 264.7 cells (mouse (endogenous in RAW 264.7)) (UniProt Q60613); assay: co-IP; RAW 264.7 cell lysate (500 µg protein), endogenous proteins, with 8.5 µg anti-A2AR antibody or without antibody, Dynabeads Protein G; western blot with anti-NPC1

| binding [1] | binding [2] | Substance |
| --- | --- | --- |
| binds | – | Niemann–Pick C1 protein (endogenous in HEK-293 cells) (from UniProt O15118 23-1278) |
| – | binds | Niemann–Pick C1 protein (mouse, endogenous) (from UniProt O35604 23-1277) |
